{
  "sequences": {"note": "Protein sequences, listed by entry. Tags and fused reporters are not part of them.", "UniProt P11473, whole entry, looked up": "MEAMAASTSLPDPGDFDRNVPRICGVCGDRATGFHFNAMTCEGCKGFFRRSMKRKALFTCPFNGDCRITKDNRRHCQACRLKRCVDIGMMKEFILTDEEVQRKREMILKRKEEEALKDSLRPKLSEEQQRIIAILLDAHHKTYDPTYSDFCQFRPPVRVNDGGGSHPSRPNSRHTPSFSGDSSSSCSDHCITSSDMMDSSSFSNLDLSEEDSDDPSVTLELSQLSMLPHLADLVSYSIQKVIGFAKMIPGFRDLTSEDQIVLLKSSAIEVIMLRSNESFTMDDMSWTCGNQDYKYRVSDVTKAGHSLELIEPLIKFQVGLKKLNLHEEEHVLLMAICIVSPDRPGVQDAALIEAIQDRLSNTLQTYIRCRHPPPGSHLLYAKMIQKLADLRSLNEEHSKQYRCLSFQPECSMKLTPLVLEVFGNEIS"},
  "source": "PubChem BioAssay AID504847",
  "about": "(National Center for Advancing Translational Sciences (NCATS), 2011)",
  "note": "Several values for one entry are separate records, joined by “and”; a condition that tells them apart may be missing. Equal values may be shown once. The whole screen tested about 400,000 compounds, of which about 3,700 (0.93%) were called active. Inconclusive means that the source gave no clear call. Such entries were picked first, then a sample of the others. Calls come from the whole dose curve; as a rule, active = well fitted inhibition curve with a large enough effect; inconclusive = small, poorly fitted or top-dose-only effect, or another doubt; inactive = no such curve, though single readings can be large or run the other way. Potencies beside an inconclusive call are fits to weak or partial responses and may not hold up. % is set by controls: 0 for no effect and ±100 for the full control effect; potency is the fitted concentration of half-maximal effect.",
  "data": [
    {"target": "Vitamin D3 receptor (Homo sapiens) (UniProt P11473)", "experiment": "Inhibitors of the vitamin D receptor (VDR): qHTS", "settings": "VDR-SRC2-3 peptide fluorescence polarization, 2 h; max response, negative = inhibition: hits give low values", "in_short": "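Fluorescence polarization assay measuring small-molecule disruption of VDR binding to the coregulator peptide SRC2-3. Compounds were pin-transferred (23 nl) into the reagent mix and incubated 2 h at room temperature before reading.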", "values": [
      {"compound": "CN1CCC(N(C)C(=O)CCc2nc3ccccc3n2-c2ccccc2)CC1", "Potency": "inconclusive: 89.1 µM [inhibitor, single point]"},
      {"compound": "NCCCC[C@H]1NC(=O)[C@H](CCC(=O)O)NC(=O)c2cc([N+](=O)[O-])cc(I)c2OCC[C@@H](C(N)=O)NC1=O", "Potency": "inconclusive: 22.4 µM [inhibitor, partial curve, poor fit]"},
      {"compound": "CC[C@]12c3[nH]c4cc(-c5ccco5)ccc4c3CCN1C(=O)[C@@H](CC(=O)NCCC1=CCCCC1)C[C@@H]2C(=O)N1CCN(C(=O)c2ccco2)CC1", "Potency": "inconclusive: 79.4 µM [inhibitor, partial curve]"},
      {"compound": "N#Cc1nc(COc2ccc(Cl)cc2)oc1NCc1ccc2c(c1)OCO2", "max response, negative = inhibition": "inactive: -4.99%"},
      {"compound": "CC1=NN(c2ccc([N+](=O)[O-])cc2)C(=O)C1[N+](=O)[O-]", "note": "(stereo unspecified)", "Potency": "inconclusive: 39.8 µM [inhibitor, full curve]"},
      {"compound": "Oc1c(C(c2ccco2)N2CCN(C(c3ccccc3)c3ccccc3)CC2)sc2ncnn12", "note": "(stereo unspecified)", "Potency": "inconclusive: 63.1 µM [inhibitor, partial curve, poor fit]"},
      {"compound": "O=C(Nc1cccc(Cl)c1)N(Cc1nc2ccccc2c(=O)[nH]1)C1CCCC1", "max response, negative = inhibition": "inactive: -14.5%"},
      {"compound": "Cc1cccc(NC(=O)Cn2c(=O)n(CCCCCC(=O)NCc3ccc4c(c3)OCO4)c(=O)c3sccc32)c1", "Potency": "inconclusive: 100 µM [inhibitor, single point]"},
      {"compound": "CCCCc1ccc(S(=O)(=O)Nc2nnc(C)s2)cc1", "Potency": "inconclusive: 100 µM [inhibitor, single point]"},
      {"compound": "CC1(C)CCC(C)(C)c2cc(NC(=O)c3ccc(C(=O)O)cc3)ccc21", "Potency": "inconclusive: 56.2 µM [inhibitor, partial curve]"},
      {"compound": "COc1cc(C(=O)Oc2cc(C)cc(C)c2)cc(OC)c1OC", "max response, negative = inhibition": "inactive: 13.5%"},
      {"compound": "CCOC(=O)CN1C(=O)S/C(=C/c2ccco2)C1=O", "Potency": "inconclusive: 79.4 µM [inhibitor, single point]"},
      {"compound": "C=Cc1c(C)c2cc3nc(cc4[nH]c(cc5nc(cc1[nH]2)C(C)=C5CCC(=O)O)c(CCC(=O)OC)c4C)[C@@]1(C)C3=CC=C(C(=O)OC)[C@H]1C(=O)OC", "note": "(tested in a mixture with another compound)", "Potency": "active: 1.12 µM"},
      {"compound": "CC(C)(C)NC(=O)NC(=O)COC(=O)COc1ccc(Cl)cc1Cl", "Potency": "inconclusive: 39.8 µM [inhibitor, single point]"},
      {"compound": "CCOc1ccccc1NC(=S)Nn1cnnc1", "Potency": "active: 39.8 µM"},
      {"compound": "Cc1ccc(S(=O)(=O)N2CCc3c2cc([N+](=O)[O-])cc3[N+](=O)[O-])cc1", "Potency": "inconclusive: 10 µM [inhibitor, partial curve, poor fit]"},
      {"compound": "COc1ccc(OC)c(N2C(=O)CC(Cc3cc(C)cc(C)c3)C2=O)c1", "note": "(stereo unspecified)", "Potency": "inconclusive: 89.1 µM [inhibitor, single point]"},
      {"compound": "O=C(/C=C/c1ccc(Cl)c([N+](=O)[O-])c1)c1ccc(O)cc1", "Potency": "inconclusive: 4.47 µM [inhibitor, full curve, poor fit]"},
      {"compound": "CNc1oc(-c2cccs2)nc1S(=O)(=O)c1ccccc1", "Potency": "inconclusive: 89.1 µM [inhibitor, single point]"},
      {"compound": "COc1cccc(C(=O)NCCS(=O)(=O)N(C)Cc2ccccc2)c1", "max response, negative = inhibition": "inactive: -12.4%"},
      {"compound": "CC(C)c1ccc(OCc2ccc(C(=O)N3CCN(c4ccccn4)CC3)cc2)cc1", "max response, negative = inhibition": "inactive: -2.23%"},
      {"compound": "CCCC(=O)N(c1ccc2oc(=O)sc2c1)S(=O)(=O)c1cccs1", "Potency": "inconclusive: 56.2 µM [inhibitor, partial curve, poor fit]"},
      {"compound": "O=C(Nc1nc2ccc(F)cc2s1)c1nc(S(=O)(=O)Cc2ccccc2F)ncc1Cl", "Potency": "inconclusive: 11.2 µM [inhibitor, partial curve, poor fit]"},
      {"compound": "COc1cccc(OCC(=O)O/N=C(\\N)c2ccncc2)c1", "Potency": "inconclusive: 100 µM [inhibitor, single point]"},
      {"compound": "CC(=O)N1CC(=O)N=C1SCC(=O)Nc1nc(-c2ccccc2)c(-c2ccccc2)s1", "max response, negative = inhibition": "inactive: -14.4%"},
      {"compound": "CCNC(=O)C1CCCN1C(=O)C(CCCN=C(N)N)NC(=O)C(CC(C)C)NC(=O)C(Cc1cn(Cc2ccccc2)cn1)NC(=O)C(Cc1ccc(O)cc1)NC(=O)C(CO)NC(=O)C(Cc1c[nH]c2ccccc12)NC(=O)C(Cc1cnc[nH]1)NC(=O)C1CCC(=O)N1", "note": "(stereo unspecified)", "Potency": "inconclusive: 100 µM [inhibitor, single point]"},
      {"compound": "COc1ccc(OC)c(C(=O)CCCC(=O)c2cc(OC)ccc2OC)c1", "Potency": "inconclusive: 89.1 µM [inhibitor, single point]"},
      {"compound": "COc1cc(C(=O)N/N=C/c2sc(=O)n(-c3ccccc3)c2Cl)cc(OC)c1OC", "max response, negative = inhibition": "inactive: 3.18%"},
      {"compound": "O=C(NCc1ccncc1)C(=O)NCc1ccncc1", "max response, negative = inhibition": "inactive: -14.1%"},
      {"compound": "CCCCOC(=O)c1ccc(NC(=S)NC(=O)c2ccco2)cc1", "max response, negative = inhibition": "inactive: -6.97%"},
      {"compound": "Oc1ccccc1C1C=C(c2ccc3c(c2)OCO3)NC(c2c(F)cccc2Cl)N1", "note": "(stereo unspecified)", "Potency": "inconclusive: 79.4 µM [inhibitor, partial curve]"},
      {"compound": "COc1ccc(-c2cn(Cc3ccc(C(N)=O)cc3)c(-c3ccc(Cl)nc3)n2)cc1", "Potency": "inconclusive: 100 µM [inhibitor, partial curve, poor fit]"},
      {"compound": "CCOC(=O)CSc1nc(N)c(C(=O)Nc2ccc(N(C)C)cc2)s1", "max response, negative = inhibition": "inactive: 10%"},
      {"compound": "CCOc1ccccc1CNc1ccc(O)cc1", "Potency": "active: 39.8 µM"},
      {"compound": "CN(C)c1ccc(-c2cc(Nc3ccc(F)cc3)ncn2)cc1", "Potency": "active: 44.7 µM"},
      {"compound": "CN(C)N=Nc1ccc2nc[nH]c2c1", "Potency": "active: 35.5 µM"},
      {"compound": "Cc1ccc(C(=O)c2c3ccc(N)cc3nn2CCC(N)=O)cc1", "Potency": "inconclusive: 79.4 µM [inhibitor, partial curve, poor fit]"},
      {"compound": "CCOc1ccccc1CNC(=O)c1oc2c(c1C)-c1[nH]ncc1CC2", "max response, negative = inhibition": "inactive: 7.33%"},
      {"compound": "Cc1ccc(C)n1-c1nnc(N2CCCC(C(=O)Nc3ccccc3Br)C2)s1", "note": "(stereo unspecified)", "max response, negative = inhibition": "inactive: 12.4%"},
      {"compound": "NC(=O)c1ccsc1NC(=O)COC(=O)c1cccnc1Cl", "Potency": "inconclusive: 89.1 µM [inhibitor, single point]"},
      {"compound": "CCN(CC(=O)NCc1ccc(Cl)cc1)C(=O)NCc1ccc(Cl)cc1", "Potency": "inconclusive: 56.2 µM [inhibitor, single point]"},
      {"compound": "Cc1ccnc(SCC(=O)N2CCCc3ccccc32)n1", "max response, negative = inhibition": "inactive: -0.188%"},
      {"compound": "COc1cccc(CNCC(=O)Nc2ccc(N3CCOCC3)cc2)c1", "max response, negative = inhibition": "inactive: 22.4%"},
      {"compound": "CCOc1ccc(N2C(=O)C(Cl)=C(N3CCOCC3)C2=O)cc1", "Potency": "active: 28.2 µM"},
      {"compound": "COc1ccc(OC)c(CNC(=O)c2nn(C)c3c2CS(=O)(=O)c2ccccc2-3)c1", "max response, negative = inhibition": "inactive: -1.35% and inactive: -18.2%"},
      {"compound": "CN(C)CCNc1ccc2nnn3c4ccc(O)cc4c(=O)c1c23", "max response, negative = inhibition": "inactive: -11.4%"},
      {"compound": "CC1=C(C(=O)N2CCOCC2)C(c2ccc(Br)cc2)NC(=S)N1c1ccccc1", "note": "(stereo unspecified)", "Potency": "inconclusive: 70.8 µM [inhibitor, partial curve]"},
      {"compound": "O=C(c1cnc2c(c1)COc1ccc(Cl)cc1-2)c1ccccc1O", "max response, negative = inhibition": "inactive: 6.95% and inactive: 2.65%"},
      {"compound": "O=C(CCn1nnc2ccccc21)N1CCC(O)(c2cccc(F)c2)CC1", "Potency": "inconclusive: 28.2 µM [inhibitor, partial curve]"},
      {"compound": "COc1ccc(NC(=O)c2cccc(Cn3cc(Br)c([N+](=O)[O-])n3)c2)c(C)c1", "Potency": "inconclusive: 89.1 µM [inhibitor, single point]"},
      {"compound": "COc1ccc(C(=O)N2CCC3(CCCN(c4ccccc4)C3)CC2)cc1", "Potency": "inconclusive: 50.1 µM [inhibitor, partial curve]"},
      {"compound": "c1ccc(CNc2nc(-c3ccc4c(c3)OCO4)nc3ccccc23)cc1", "Potency": "active: 44.7 µM"},
      {"compound": "CCS(=O)(=O)c1oc(-c2ccc(F)cc2)nc1S(=O)(=O)c1ccccc1", "Potency": "active: 20 µM"},
      {"compound": "O=C(CCC(=O)c1cccs1)NCC(=O)Nc1ccc(F)c(F)c1F", "Potency": "inconclusive: 89.1 µM [inhibitor, single point]"},
      {"compound": "O=[N+]([O-])/C=C/c1cn(Cc2ccc(F)cc2)c2ccccc12", "Potency": "active: 20 µM"},
      {"compound": "O=C1c2ccccc2C(Nc2ccc(F)c(Cl)c2)N1Cc1ccco1", "note": "(stereo unspecified)", "Potency": "active: 89.1 µM"},
      {"compound": "O=C(/C=C/c1cccc([N+](=O)[O-])c1)NC(=S)Nc1ccc(CN2CCOCC2)cc1", "Potency": "inconclusive: 89.1 µM [inhibitor, single point]"},
      {"compound": "O=C(CCc1nnc(COc2ccccc2)o1)NCc1ccccc1C(F)(F)F", "max response, negative = inhibition": "inactive: 5.07%"},
      {"compound": "CC(Oc1ccccc1)C(=O)Nc1ccccc1C(=O)OCc1cc(=O)n2nc(C(C)C)sc2n1", "note": "(stereo unspecified)", "max response, negative = inhibition": "inactive: 4.15%"},
      {"compound": "CC(=O)N1N=C(c2c(-c3ccccc3)c3cc(C)ccc3[nH]c2=O)CC1c1ccco1", "note": "(stereo unspecified)", "max response, negative = inhibition": "inactive: -10.6%"},
      {"compound": "CCOC(=O)C1C(c2ccc3c(c2)OCO3)NC(=O)NC1(O)C(F)(F)F", "note": "(stereo unspecified)", "Potency": "inconclusive: 35.5 µM [inhibitor, single point]"},
      {"compound": "CC1=NN(c2ccc(C)cc2C)C(=O)C1C(c1ccccc1O)C1C(=O)N(c2ccc(C)cc2C)N=C1C", "note": "(stereo unspecified)", "Potency": "inconclusive: 89.1 µM [inhibitor, single point]"},
      {"compound": "O=C(N/N=C/C(Br)=C/c1ccccc1)C1CC1", "Potency": "inconclusive: 56.2 µM [inhibitor, partial curve, poor fit]"},
      {"compound": "CCOc1ccc(-c2nc(CSCC(=O)NCCc3ccc(OCC)c(OCC)c3)c(C)o2)cc1", "max response, negative = inhibition": "inactive: 10.6%"},
      {"compound": "Cc1ccc(NC(=O)C2CCN(c3ncnc4sc(C)c(C)c34)CC2)cc1S(=O)(=O)N(C)C", "max response, negative = inhibition": "inactive: 7.17%"},
      {"compound": "O=C(/C=C/c1ccco1)NC(=S)Nc1ccccc1", "Potency": "inconclusive: 100 µM [inhibitor, partial curve, poor fit]"}
    ]}
  ]
}
